The inconclusive results got no clear call from the source; some entries with a clear call stand among them for comparison. Potencies beside an inconclusive call are fits to weak or partial responses and may not hold up. The source made the active and inactive calls. Rule for the calls: active = hit-call score of the fitted dose curve at least 0.9, where 1 is the maximum; inconclusive = response in the unintended direction; inactive = score below 0.9.
Columns and labels:
[1] = target: Peroxisome proliferator-activated receptor gamma (Homo sapiens) (UniProt P37231); experiment: ATG_PPARg_TRANS: Attagene TRANS-FACTORIAL HepG2 Assay for human Peroxisome Proliferator-activated Receptor-gamma (PPARg) (AID 2283007)
Method in brief: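 Chimeric NR-Gal4 transactivation is measured in transiently transfected HepG2 cells by reporter mRNA induction at 24 h. Detection uses RT-PCR with fluorescent labelling and capillary electrophoresis; DMSO defines baseline.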

Amino acid sequences for entries named in this document (tags omitted). A change or cut given only in a name is not applied to a line headed by its entry.
UniProt P37231: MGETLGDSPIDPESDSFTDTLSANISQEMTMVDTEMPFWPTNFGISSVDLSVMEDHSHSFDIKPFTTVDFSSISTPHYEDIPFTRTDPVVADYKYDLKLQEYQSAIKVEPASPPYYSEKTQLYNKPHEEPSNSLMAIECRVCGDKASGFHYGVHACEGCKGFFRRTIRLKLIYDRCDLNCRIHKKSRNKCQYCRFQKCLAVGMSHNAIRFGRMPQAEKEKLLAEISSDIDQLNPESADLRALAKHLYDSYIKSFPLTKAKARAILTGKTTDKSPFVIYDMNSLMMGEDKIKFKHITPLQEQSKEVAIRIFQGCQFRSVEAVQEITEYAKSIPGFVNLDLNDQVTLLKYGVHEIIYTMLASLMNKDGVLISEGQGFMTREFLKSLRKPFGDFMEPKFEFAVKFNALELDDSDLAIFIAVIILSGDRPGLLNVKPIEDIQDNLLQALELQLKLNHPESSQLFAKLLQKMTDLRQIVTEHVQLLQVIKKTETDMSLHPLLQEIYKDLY
UniProt P13631, whole entry, looked up: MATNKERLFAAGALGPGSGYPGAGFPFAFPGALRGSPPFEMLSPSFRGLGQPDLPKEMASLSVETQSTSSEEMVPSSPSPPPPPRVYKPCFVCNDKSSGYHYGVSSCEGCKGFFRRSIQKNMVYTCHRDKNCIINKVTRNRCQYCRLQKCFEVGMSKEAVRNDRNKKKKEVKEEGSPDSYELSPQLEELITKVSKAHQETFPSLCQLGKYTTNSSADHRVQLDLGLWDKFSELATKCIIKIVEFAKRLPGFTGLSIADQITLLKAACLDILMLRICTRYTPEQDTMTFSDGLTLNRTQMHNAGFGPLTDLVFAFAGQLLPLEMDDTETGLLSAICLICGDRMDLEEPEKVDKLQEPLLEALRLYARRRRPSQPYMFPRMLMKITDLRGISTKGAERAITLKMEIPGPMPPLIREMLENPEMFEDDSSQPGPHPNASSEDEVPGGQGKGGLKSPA
UniProt P51449: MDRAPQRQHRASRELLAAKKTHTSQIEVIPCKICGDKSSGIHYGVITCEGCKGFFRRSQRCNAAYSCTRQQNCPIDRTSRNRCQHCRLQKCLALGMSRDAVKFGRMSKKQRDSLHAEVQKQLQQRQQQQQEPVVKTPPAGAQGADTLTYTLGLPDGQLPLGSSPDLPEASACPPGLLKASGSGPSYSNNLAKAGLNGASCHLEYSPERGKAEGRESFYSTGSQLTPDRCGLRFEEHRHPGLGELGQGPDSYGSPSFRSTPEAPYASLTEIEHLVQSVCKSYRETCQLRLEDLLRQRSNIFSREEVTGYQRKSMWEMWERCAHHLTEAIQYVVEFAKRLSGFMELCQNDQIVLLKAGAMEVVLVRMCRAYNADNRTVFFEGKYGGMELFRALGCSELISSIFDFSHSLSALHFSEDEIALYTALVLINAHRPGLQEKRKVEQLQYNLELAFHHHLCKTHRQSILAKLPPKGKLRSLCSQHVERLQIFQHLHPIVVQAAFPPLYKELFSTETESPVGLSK
UniProt P10827: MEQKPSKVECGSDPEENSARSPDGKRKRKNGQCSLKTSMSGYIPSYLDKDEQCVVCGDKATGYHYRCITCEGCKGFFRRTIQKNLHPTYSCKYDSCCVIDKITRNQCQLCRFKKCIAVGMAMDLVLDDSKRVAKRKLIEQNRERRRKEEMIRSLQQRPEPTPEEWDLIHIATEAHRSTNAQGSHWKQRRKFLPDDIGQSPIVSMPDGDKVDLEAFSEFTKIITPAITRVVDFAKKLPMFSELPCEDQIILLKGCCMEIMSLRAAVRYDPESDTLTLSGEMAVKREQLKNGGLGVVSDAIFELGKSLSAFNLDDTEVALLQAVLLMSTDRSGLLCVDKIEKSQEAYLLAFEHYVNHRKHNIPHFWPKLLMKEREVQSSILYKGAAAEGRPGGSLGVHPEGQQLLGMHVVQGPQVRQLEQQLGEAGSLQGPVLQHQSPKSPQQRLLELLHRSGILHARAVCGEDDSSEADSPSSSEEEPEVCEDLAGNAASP
UniProt Q92753: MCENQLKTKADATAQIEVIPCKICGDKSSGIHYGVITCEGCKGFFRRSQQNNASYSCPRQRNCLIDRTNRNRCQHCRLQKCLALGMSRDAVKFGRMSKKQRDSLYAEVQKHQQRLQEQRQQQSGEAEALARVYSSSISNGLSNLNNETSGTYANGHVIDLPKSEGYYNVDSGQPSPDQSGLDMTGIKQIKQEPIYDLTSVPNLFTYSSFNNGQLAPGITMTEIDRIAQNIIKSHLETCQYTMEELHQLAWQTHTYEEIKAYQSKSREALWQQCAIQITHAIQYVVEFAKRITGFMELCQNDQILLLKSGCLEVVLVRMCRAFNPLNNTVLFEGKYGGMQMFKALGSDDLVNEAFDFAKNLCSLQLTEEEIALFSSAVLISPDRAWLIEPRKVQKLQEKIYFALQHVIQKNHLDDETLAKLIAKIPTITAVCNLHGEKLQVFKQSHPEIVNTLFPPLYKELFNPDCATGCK
UniProt P28702: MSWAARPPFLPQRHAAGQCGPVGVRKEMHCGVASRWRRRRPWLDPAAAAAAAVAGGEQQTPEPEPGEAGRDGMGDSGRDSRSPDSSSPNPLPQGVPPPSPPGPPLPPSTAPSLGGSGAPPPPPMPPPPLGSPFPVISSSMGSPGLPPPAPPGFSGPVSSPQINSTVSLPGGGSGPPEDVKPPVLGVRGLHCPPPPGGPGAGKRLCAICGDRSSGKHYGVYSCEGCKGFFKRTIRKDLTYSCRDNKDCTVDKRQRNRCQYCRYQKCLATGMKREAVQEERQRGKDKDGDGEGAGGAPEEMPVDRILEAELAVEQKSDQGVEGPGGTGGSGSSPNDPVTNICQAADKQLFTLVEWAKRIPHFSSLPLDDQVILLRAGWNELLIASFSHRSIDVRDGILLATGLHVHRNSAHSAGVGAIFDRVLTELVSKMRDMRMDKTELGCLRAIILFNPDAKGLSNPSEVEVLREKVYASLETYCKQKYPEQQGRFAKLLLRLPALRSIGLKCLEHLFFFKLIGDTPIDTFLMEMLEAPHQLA
UniProt P19793: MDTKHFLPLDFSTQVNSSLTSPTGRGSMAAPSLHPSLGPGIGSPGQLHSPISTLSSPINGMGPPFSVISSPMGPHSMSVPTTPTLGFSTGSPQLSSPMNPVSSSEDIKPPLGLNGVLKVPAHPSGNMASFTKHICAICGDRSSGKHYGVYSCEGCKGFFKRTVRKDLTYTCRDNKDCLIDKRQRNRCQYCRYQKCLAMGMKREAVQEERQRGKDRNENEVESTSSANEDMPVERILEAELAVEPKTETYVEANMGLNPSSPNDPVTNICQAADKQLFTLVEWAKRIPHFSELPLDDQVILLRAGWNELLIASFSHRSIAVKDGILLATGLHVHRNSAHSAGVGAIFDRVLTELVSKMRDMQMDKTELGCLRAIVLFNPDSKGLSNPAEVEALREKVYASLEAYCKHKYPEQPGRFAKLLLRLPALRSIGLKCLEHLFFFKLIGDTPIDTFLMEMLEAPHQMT
UniProt P11473: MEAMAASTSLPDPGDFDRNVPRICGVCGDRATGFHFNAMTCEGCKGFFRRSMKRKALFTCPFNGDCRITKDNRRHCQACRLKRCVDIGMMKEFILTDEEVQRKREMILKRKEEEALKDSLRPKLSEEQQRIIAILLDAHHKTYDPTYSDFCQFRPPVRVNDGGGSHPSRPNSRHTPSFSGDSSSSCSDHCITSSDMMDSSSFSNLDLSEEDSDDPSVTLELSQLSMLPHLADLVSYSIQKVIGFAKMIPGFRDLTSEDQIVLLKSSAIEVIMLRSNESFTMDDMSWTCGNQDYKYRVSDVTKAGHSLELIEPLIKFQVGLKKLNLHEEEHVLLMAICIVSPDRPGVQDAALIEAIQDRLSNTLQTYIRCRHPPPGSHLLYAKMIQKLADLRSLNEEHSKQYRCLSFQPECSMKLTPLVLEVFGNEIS

[2] = target: human Retinoic Acid Receptor gamma (RARg), RARG (gene 5916) (UniProt P13631); experiment: ATG_RARg_TRANS: Attagene TRANS-FACTORIAL HepG2 Assay for human Retinoic Acid Receptor gamma (RARg) (AID 2283009);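 for AC50: AC50 is for reporter induction above DMSO meaning RARg activation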
Method in brief: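 Readout: reporter transcript levels via RT-PCR, 6-FAM primer-extension labelling, HpaI digestion and capillary electrophoresis. Cells: HepG2 carrying transfected RARg-GAL4 chimera plus UAS reporter set. Dosing 24 h; DMSO negative control.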

[3] = target: human RAR-related Orphan Receptor gamma (RORg), RORC (gene 6097) (UniProt P51449); experiment: ATG_RORg_TRANS: Attagene TRANS-FACTORIAL HepG2 Assay for human RAR-related Orphan Receptor gamma (RORg) (AID 2283011);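 note: potency for induction of reporter transcripts above DMSO so activators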
Method in brief: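 Readout: reporter transcript induction (RT-PCR, fluorescent primer extension, capillary electrophoresis) after 24 h compound exposure of transiently transfected HepG2 cells carrying a RORg-Gal4 chimera and GAL4-UAS reporters; DMSO served as baseline, with increasing signal fitted.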

[4] = target: human Thyroid Receptor alpha (THRa1), THRA (gene 7067) (UniProt P10827); experiment: ATG_THRa1_TRANS: Attagene TRANS-FACTORIAL HepG2 Assay for human Thyroid Receptor alpha (THRa1) (AID 2283014)
Method in brief: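 HepG2 cells transiently transfected with multiplexed GAL4-UAS reporter units for exogenous chimeric THRa1-Gal4; reporter mRNA measured 24 h after dosing by RT-PCR, 6-FAM labelling, HpaI digestion and capillary electrophoresis. Gain-of-signal fitted versus DMSO baseline.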

[5] = target: human RAR-related Orphan Receptor beta (RORb), RORB (gene 6096) (UniProt Q92753); experiment: ATG_RORb_TRANS: Attagene TRANS-FACTORIAL HepG2 Assay for human RAR-related Orphan Receptor beta (RORb) (AID 2283010);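 for AC50: potency for increased reporter mRNA meaning activation of RORb-Gal4 chimera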
Method in brief: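 HepG2, transient MRTU transfection (GAL4-UAS reporters, exogenous NR-Gal4 chimeras); 24 h compound exposure; total RNA → RT-PCR → 6-FAM primer extension → HpaI digest → CE fluorescence. Positive direction vs DMSO baseline.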

[6] = target: human Retinoid X Receptor beta (RXRb), RXRB (gene 6257) (UniProt P28702); experiment: ATG_RXRb_TRANS: Attagene TRANS-FACTORIAL HepG2 Assay for human Retinoid X Receptor beta (RXRb) (AID 2283013)
Method in brief: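 Read-out: reporter mRNA induction via RT-PCR plus capillary electrophoresis fluorescence, analysed as signal increase relative to DMSO. Cells were human HepG2, transiently transfected with GAL4-UAS reporter constructs and chimeric receptor-Gal4 fusions, dosed for 24 h.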

[7] = target: Retinoic acid receptor RXR-alpha (Homo sapiens) (UniProt P19793); experiment: ATG_RXRa_TRANS: Attagene TRANS-FACTORIAL HepG2 Assay for human Retinoid X Receptor alpha (RXRa) (AID 2283012)
Method in brief: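 Read-out: fluorescent reporter-transcript fragments quantified by capillary electrophoresis after RT-PCR. Transiently transfected HepG2 cells carrying GAL4-UAS reporters and NR-GAL4 chimeras were exposed to chemical for 24 h; activity scored as increase over DMSO.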

[8] = target: human Vitamin D Receptor (VDR), VDR (gene 7421) (UniProt P11473); experiment: ATG_VDR_TRANS: Attagene TRANS-FACTORIAL HepG2 Assay for human Vitamin D Receptor (VDR) (AID 2283022)
Method in brief: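 HepG2 cells were transiently transfected with multiple GAL4-UAS reporter units, so signal reflects exogenous chimeric receptor-Gal4 activity. After 24 h compound exposure, reporter mRNA was measured by RT-PCR, fluorescent labelling and capillary electrophoresis, fitted for gain of signal versus DMSO.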

`O=C(O)C(F)(F)C(F)(F)C(F)(F)OC(F)(C(F)(F)F)C(F)(F)F` was tested, and the AC50 [1] was active: 101 µM, the outcome [2] was “inactive” and the AC50 [5] was inconclusive: 150 µM. For the same compound, the outcome [6] was “inactive” and the AC50 [4] was inconclusive: 150 µM.

In the case of `CN(C)CCOC(C)(c1ccccc1)c1ccccn1` (stereo not given), the AC50 [1] is reported as inconclusive: 0.0823 µM, the outcome [2] is reported as “inactive” and the AC50 [3] is reported as inconclusive: 27.4 µM. For the same compound, the AC50 [7] was inconclusive: 24.2 µM, the AC50 [6] was inconclusive: 100 µM and the AC50 [4] was inconclusive: 100 µM. The AC50 [8] was inconclusive: 2.86 µM.

In the case of `CCCCCOC(=O)CCC`, the outcome [1] is reported as “inactive”, the outcome [2] is reported as “inactive” and the outcome [5] is reported as “inactive”. For the same compound, the outcome [7] was “inactive” and the AC50 [4] was inconclusive: 100 µM.

For `O=CC(F)(F)C(F)(F)C(F)(F)C(F)F`, the outcome [1] was “inactive”, the AC50 [2] was inconclusive: 35 µM and the AC50 [3] was inconclusive: 272 µM. The outcome [4] was “inactive”.

For `C=CCOC(=O)c1ccc(C(=O)OCC=C)c(C(=O)OCC=C)c1`, the AC50 [1] was active: 27.7 µM, the AC50 [2] was inconclusive: 27.3 µM and the AC50 [3] was inconclusive: 0.357 µM.

`Cc1c(C(=O)c2c[nH]n(C)c2=O)ccc(S(C)(=O)=O)c1C1=NOCC1` was tested, and the AC50 [1] was inconclusive: 43 µM, the AC50 [2] was inconclusive: 43 µM and the AC50 [3] was inconclusive: 43 µM. For the same compound, the AC50 [7] was inconclusive: 43 µM, the AC50 [6] was inconclusive: 43 µM and the AC50 [4] was inconclusive: 78.7 µM.

For `c1ccc(CCc2ccccc2)cc1`, the outcome [1] was “inactive”, the AC50 [2] was inconclusive: 5.22 µM and the AC50 [3] was inconclusive: 166 µM. For the same compound, the outcome [4] was “inactive” and the AC50 [8] was inconclusive: 100 µM.

`O=C=NCc1cccc(CN=C=O)c1` was tested, and the AC50 [1] was inconclusive: 4.2 µM, the AC50 [2] was inconclusive: 12.3 µM and the AC50 [3] was inconclusive: 0.0823 µM. The outcome [7] was “inactive”, the outcome [6] was “inactive” and the AC50 [8] was inconclusive: 2.14 µM.
